Laboratory results as given in patent publication US10668040B2, “Treatment of urea cycle disorders in neonates and infants” (Horizon Therapeutics, LLC, priority 2017, dated 2020).

System: UCD patients
Experiment: Example 3: amino acids baseline and change from baseline up to Month 24
Assay type: in vivo, human
[1] = Age 2 months to <2 years, Day 7
[2] = Age 2 months to <2 years, Month 2
[3] = Age 2 months to <2 years, Month 3
[4] = Age 2 months to <2 years, Month 4
[5] = Age 2 months to <2 years, Month 5
[6] = Age 2 months to <2 years, Month 6
[7] = Age 2 months to <2 years, Month 9
[8] = Age 2 months to <2 years, Month 12
[9] = Age 2 months to <2 years, Month 15
[10] = Age 2 months to <2 years, Month 24

## O=C(CCCc1ccccc1)OCC(COC(=O)CCCc1ccccc1)OC(=O)CCCc1ccccc1 [RAVICTI, benzenebutanoic acid, 1′,1″-(1,2,3-propanetriyl) ester]
Age 0 to <2 months, Month 12
  Glutamate change from baseline: 8.75 (±97.329); μmol/L
  Glutamine change from baseline: −181.50 (±118.604); μmol/L
  Isoleucine change from baseline: −178.50 (±335.538); μmol/L
  Leucine change from baseline: −249.50 (±483.776); μmol/L
  Sum of glutamine and glutamate change from baseline: −172.75 (±210.202); μmol/L
  Valine change from baseline: −238.25 (±506.435); μmol/L
Age 0 to <2 months, Month 15
  Glutamate change from baseline: 25.75 (±62.660); μmol/L
  Glutamine change from baseline: −103.75 (±328.583); μmol/L
  Isoleucine change from baseline: −139.50 (±359.287); μmol/L
  Leucine change from baseline: −195.75 (±496.313); μmol/L
  Sum of glutamine and glutamate change from baseline: −78.00 (±297.410); μmol/L
  Valine change from baseline: −137.00 (±519.042); μmol/L
Age 0 to <2 months, Month 18
  Glutamate change from baseline: 2.50 (±21.920); μmol/L
  Glutamine change from baseline: −184.00 (±80.610); μmol/L
  Isoleucine change from baseline: 1.00 (±45.255); μmol/L
  Leucine change from baseline: 6.00 (±62.225); μmol/L
  Sum of glutamine and glutamate change from baseline: −181.50 (±102.530); μmol/L
  Valine change from baseline: 38.00 (±67.882); μmol/L
Age 0 to <2 months, Month 24
  Glutamate change from baseline: 16.10 (±95.461); μmol/L
  Glutamine change from baseline: −219.93 (±279.815); μmol/L
  Isoleucine change from baseline: −55.31 (±217.209); μmol/L
  Leucine change from baseline: −82.54 (±228.107). μmol/L
  Sum of glutamine and glutamate change from baseline: −203.83 (±255.810); μmol/L
  Valine change from baseline: −72.78 (±258.710); μmol/L
[1]
  Glutamate change from baseline: −54.50 (±92.626); μmol/L
  Glutamine change from baseline: −184.33 (±168.657); μmol/L
  Isoleucine change from baseline: 2.67 (±19.159); μmol/L
  Leucine change from baseline: −0.83 (±32.762); μmol/L
  Sum of glutamine and glutamate change from baseline: −238.83 (±203.567); μmol/L
  Valine change from baseline: 4.00 (±24.133); μmol/L
[2]
  Glutamate change from baseline: 7.80 (±25.646); μmol/L
  Glutamine change from baseline: −174.60 (±318.249); μmol/L
  Isoleucine change from baseline: 4.20 (±45.861); μmol/L
  Leucine change from baseline: 9.80 (±65.975); μmol/L
  Sum of glutamine and glutamate change from baseline: −166.80 (±332.421); μmol/L
  Valine change from baseline: 40.60 (±90.057); μmol/L
[3]
  Glutamate change from baseline: −16.33 (±39.209); μmol/L
  Glutamine change from baseline: −374.00 (±425.903); μmol/L
  Isoleucine change from baseline: −25.67 (±16.743); μmol/L
  Leucine change from baseline: −33.00 (±25.239); μmol/L
  Sum of glutamine and glutamate change from baseline: −390.33 (±462.292); μmol/L
  Valine change from baseline: −27.33 (±37.018); μmol/L
[4]
  Glutamate change from baseline: −13.00 (±39.590); μmol/L
  Glutamine change from baseline: −252.75 (±323.852); μmol/L
  Isoleucine change from baseline: −20.25 (±20.353); μmol/L
  Leucine change from baseline: −31.25 (±24.771); μmol/L
  Sum of glutamine and glutamate change from baseline: −265.75 (±339.015); μmol/L
  Valine change from baseline: −31.50 (±29.760); μmol/L
[5]
  Glutamate change from baseline: 0.25 (±13.426); μmol/L
  Glutamine change from baseline: −370.25 (±377.222); μmol/L
  Isoleucine change from baseline: −20.00 (±36.341); μmol/L
  Leucine change from baseline: −39.50 (±61.136); μmol/L
  Sum of glutamine and glutamate change from baseline: −370.00 (±379.884); μmol/L
  Valine change from baseline: −56.00 (±75.939); μmol/L
[6]
  Glutamate change from baseline: −2.20 (±34.463); μmol/L
  Glutamine change from baseline: −113.20 (±519.710); μmol/L
  Isoleucine change from baseline: −16.40 (±12.137); μmol/L
  Leucine change from baseline: −25.40 (±13.594); μmol/L
  Sum of glutamine and glutamate change from baseline: −115.40 (±546.796); μmol/L
  Valine change from baseline: −21.60 (±18.202); μmol/L
[7]
  Glutamate change from baseline: 30.80 (±17.092); μmol/L
  Glutamine change from baseline: −446.53 (±360.457); μmol/L
  Isoleucine change from baseline: −6.73 (±13.342); μmol/L
  Leucine change from baseline: −19.13 (±39.322); μmol/L
  Sum of glutamine and glutamate change from baseline: −415.73 (±365.419); μmol/L
  Valine change from baseline: −11.90 (±71.753); μmol/L
[8]
  Glutamate change from baseline: 22.20 (±23.506); μmol/L
  Glutamine change from baseline: −450.50 (±386.699); μmol/L
  Isoleucine change from baseline: −13.33 (±15.885); μmol/L
  Leucine change from baseline: −34.37 (±23.283); μmol/L
  Sum of glutamine and glutamate change from baseline: −428.30 (±404.351); μmol/L
  Valine change from baseline: −48.87 (±51.644); μmol/L
[9]
  Glutamate change from baseline: 39.00 (±00000); μmol/L
  Glutamine change from baseline: −149.00 (±00000); μmol/L
  Isoleucine change from baseline: −18.00 (±00000); μmol/L
  Leucine change from baseline: −40.00 (±00000); μmol/L
  Sum of glutamine and glutamate change from baseline: −110.00 (±00000); μmol/L
  Valine change from baseline: −46.00 (±0000); μmol/L
[10]
  Glutamate change from baseline: 48.00 (±53.740); μmol/L
  Glutamine change from baseline: 195.00 (±554.372); μmol/L
  Isoleucine change from baseline: 1.50 (±10.607); μmol/L
  Leucine change from baseline: −1.50 (±31.820); μmol/L
  Sum of glutamine and glutamate change from baseline: 243.00 (±608.112); μmol/L
  Valine change from baseline: 5.00 (±55.154); μmol/L

Some results come without the dose or concentration used.
